# Where a name gives a salt, the structure may show the parent alone. The list shows a part of the results. The calls rarely recur for the same compound in another form.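 In K562 cells expressing nanoluciferase-fused kinases, luminescence was recorded at 4 h intervals between 2 and 18 h, normalized as percent of control with DMSO at 100% and a positive control at 0%. A significant (2 sigma) signal drop marks a time point as decreased. The authors' rule for a hit is not shown and takes in more than the number of time points.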
# Chains of the proteins cited; added tags and fusions are not shown. Lines headed by an entry give the natural chain unless they say otherwise; changes in a name come on top.
# UniProt P53350, whole entry: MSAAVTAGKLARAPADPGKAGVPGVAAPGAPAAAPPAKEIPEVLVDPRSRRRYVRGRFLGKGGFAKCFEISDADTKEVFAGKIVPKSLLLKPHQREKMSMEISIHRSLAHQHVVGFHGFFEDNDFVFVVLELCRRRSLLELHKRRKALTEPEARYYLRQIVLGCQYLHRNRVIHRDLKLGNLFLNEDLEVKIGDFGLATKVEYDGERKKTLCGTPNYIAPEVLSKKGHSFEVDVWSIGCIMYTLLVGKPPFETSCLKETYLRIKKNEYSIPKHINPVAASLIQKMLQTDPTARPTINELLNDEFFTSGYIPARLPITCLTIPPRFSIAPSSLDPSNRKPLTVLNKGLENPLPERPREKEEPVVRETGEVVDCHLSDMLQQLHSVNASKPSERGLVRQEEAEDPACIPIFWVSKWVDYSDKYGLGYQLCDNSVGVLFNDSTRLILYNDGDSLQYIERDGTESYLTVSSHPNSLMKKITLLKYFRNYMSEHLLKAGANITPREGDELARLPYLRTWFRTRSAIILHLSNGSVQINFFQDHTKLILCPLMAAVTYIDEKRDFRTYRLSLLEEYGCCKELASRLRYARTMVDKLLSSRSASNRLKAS
# UniProt Q13131: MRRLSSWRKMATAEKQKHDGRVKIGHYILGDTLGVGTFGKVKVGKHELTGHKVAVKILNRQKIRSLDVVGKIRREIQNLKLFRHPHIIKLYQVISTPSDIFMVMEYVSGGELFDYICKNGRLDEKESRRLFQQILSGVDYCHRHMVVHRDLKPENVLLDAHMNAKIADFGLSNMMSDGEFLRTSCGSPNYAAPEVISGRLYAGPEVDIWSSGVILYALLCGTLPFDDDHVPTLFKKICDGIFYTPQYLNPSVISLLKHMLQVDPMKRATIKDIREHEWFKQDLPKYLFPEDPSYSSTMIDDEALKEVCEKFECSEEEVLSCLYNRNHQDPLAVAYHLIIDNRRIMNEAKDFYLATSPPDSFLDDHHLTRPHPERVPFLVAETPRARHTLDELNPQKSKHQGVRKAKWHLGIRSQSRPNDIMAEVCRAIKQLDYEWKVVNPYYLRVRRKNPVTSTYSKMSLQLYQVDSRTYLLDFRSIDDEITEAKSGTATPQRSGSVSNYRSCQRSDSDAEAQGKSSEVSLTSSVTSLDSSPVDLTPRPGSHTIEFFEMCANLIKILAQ
# Molecular target: PLK1 (UniProt P53350)
# Assay: number of time points (of 5) at which kinase-Nluc abundance scored as decreased, DMSO-normalised (count); higher = more persistent destabilization
# Details: K562; 2-18 h
row,SMILES,number of time points
1,Cc1c(-c2ccc(C(N)=O)c3[nH]c4cc(C(C)(C)O)ccc4c23)cccc1-n1cnc2ccccc2c1=O (2.5 µM),0
2,CC(C)(C)n1nc(Cc2ccccc2O)c2c(N)ncnc21 (10 µM),0
3,C=CC(=O)N1C(=O)CC(c2ccc(F)cc2)Sc2ccccc21 (stereo not drawn) [GSK-3β inhibitor 3] (10 µM),0
4,CCc1ccc(OCC(=O)Nc2ccc(F)c([N+](=O)[O-])c2)cc1 (10 µM),0
5,CN(C)c1nc2c(Br)c(Br)c(Br)c(Br)c2[nH]1 (10 µM),0
6,Nc1ncnc2c1c(-c1ccc(Oc3ccccc3)cc1)nn2C1CCN(CCOCCOCCOc2ccc3c(c2)CN(C2CCC(=O)NC2=O)C3=O)CC1 (stereo not given) (2.5 µM),0
7,Cc1cnc(NC2CCOCC2)nc1-n1cnc(C(=O)N[C@H](CN)c2cc(F)cc(Cl)c2)c1 (10 µM),0
8,FC(F)(F)c1ccc(/C=C/c2nc(COc3ccc(CCCCn4ccnn4)cc3)co2)cc1 [Mubritinib] (10 µM),0
9,Cc1cc2sc(NC(=O)Cc3ccccc3)nc2cc1Cl (10 µM),0
10,O=C(CNc1cccc(Cl)c1)NC1CCCN(c2ncnc3[nH]ccc23)C1 (stereo not given) (10 µM),0
11,Oc1ccc(/C=C/c2cc(O)cc(F)c2)cc1 [Resveratrol analog 1] (10 µM),0
12,CC/C(=N\NC(=O)c1ccnc(NCCCN2CCOCC2)c1)c1ccc(Cl)cc1O (2.5 µM),0
13,O[C@@H]1CO[C@H]2[C@@H]1OC[C@H]2Oc1nc2nc(-c3ccc(-c4ccccc4)cc3)c(Cl)cc2[nH]1 (10 µM),0
14,Nc1c(C(=O)NCc2ccc(C(=O)NCCCC3CCCCC3)cc2)cnn1-c1ccccc1 (2.5 µM),0
15,Cc1ccc(C(=O)Nc2sc(Nc3ccccc3)nc2C(N)=O)cc1 (10 µM),0
16,COc1cc(N(C)CCN(C)C)c(N)cc1Nc1nccc(-c2cn(C)c3ccccc23)n1 [Mutated EGFR-IN-1] (10 µM),0
17,CCN(CC)c1cc2oc(=O)c(-c3nc4ccccc4o3)cc2cc1C (2.5 µM),0
18,Cn1cc(-c2cnc3cnn(S(=O)(=O)c4cnc5ccc(-c6cnn(C)c6)cn45)c3c2)cn1 [Glumetinib] (10 µM),0
19,Cc1ccc(NC(=O)c2ccnc(C(F)(F)F)c2)cc1-c1cc(OCCO)nc(N2CCOCC2)c1 (10 µM),0
20,C=CC(=O)Nc1cccc(-c2cccc3cnc(Nc4ccc(N5CCN(CCO)CC5)c(F)c4F)nc23)c1 [Olafertinib] (2.5 µM),0
21,CC(C)(C[C@H](N)C(=O)O)C(F)F [NV-5138 (hydrochloride)] (10 µM),0
22,Cc1cc(C)nc(NS(=O)(=O)c2ccc(NC(=S)NC(=O)COc3ccc(Br)cc3Cl)cc2)n1 (2.5 µM),0
23,CC[C@@](C)(Nc1ccnc(-c2c[nH]c3ncccc23)n1)C(=O)NCC(F)(F)F [Decernotinib] (10 µM),0
24,COc1cc2ncnc(-n3nc(-c4ccccn4)nc3N)c2cc1OC (10 µM),0
25,O=C1/C(=C\c2ccc(Cl)cc2)C=C(c2ccccc2)N1c1ccc(O)cc1 (2.5 µM),0
26,Oc1ccc(/C=C/c2cc(O)cc(O)c2)cc1 [Resveratrol] (10 µM),0

# Molecular target: PRKAA1 (UniProt Q13131)
# Assay: as above
# Details: K562; 2-18 h
row,SMILES,number of time points
1,CN1C(=O)[C@@H](NC(=O)c2n[nH]c(Cc3ccccc3)n2)COc2ccccc21 (10 µM),0
2,O=C1NC(=Nc2c(Cl)cccc2Cl)S/C1=C\c1ccc2nccnc2c1 (2.5 µM),0
3,Cc1cccc(-c2[nH]c(C(C)(C)C)nc2-c2ccc3nccnc3c2)n1 (10 µM),0
4,O=C(Nc1cccc(C(F)(F)F)c1)c1cccc2cc(Oc3cc(CO)ncn3)ccc12 (10 µM),0
5,CNc1cc(Nc2cccn(-c3ccccn3)c2=O)nn2c(C(=O)N[C@@H]3C[C@@H]3F)cnc12 (2.5 µM),0
6,Cc1ccn2c(C(=O)C(=O)c3ccccc3)c(-c3ccccc3)nc2c1 (10 µM),0
7,COc1cc(N2CCOCC2)ccc1Nc1ncc(Cl)c(Nc2ccccc2NS(C)(=O)=O)n1 (2.5 µM),0
8,O=C(NC1CCOCC1)c1ccc(-c2cc(-c3c[nH]nc3-c3ccccn3)ccn2)cc1 (10 µM),0
9,O=C1NC(=O)/C(=C/c2ccc3nccc(-c4ccncc4)c3c2)S1 (10 µM),0
10,Cc1ncc(NC(=O)NC2c3ccccc3-c3ccccc32)c(-c2ccccc2)n1 (10 µM),0
11,CC(C)C[C@@H](C(=O)Nc1ccn(C[C@@H](O)CO)n1)N1CC(Oc2ccccc2Cl)=CC1=O [Dorzagliatin] (10 µM),0
12,O=C1O[C@H]([C@@H](O)CO)C(O)=C1OP(=O)(O)O [2-Phospho-L-ascorbic acid (trisodium)] (10 µM),0
13,C[C@@H]1CC(=O)c2c(ccc3c2C(=O)c2cccc(O)c2C3=O)C1 [Ochromycinone] (10 µM),0
14,Cc1c(-c2ccc(C(N)=O)c3[nH]c4cc(C(C)(C)O)ccc4c23)cccc1-n1cnc2ccccc2c1=O (2.5 µM),0
15,CC(C)(C)n1nc(Cc2ccccc2O)c2c(N)ncnc21 (10 µM),0
16,C=CC(=O)N1C(=O)CC(c2ccc(F)cc2)Sc2ccccc21 (stereo not drawn) [GSK-3β inhibitor 3] (10 µM),0
17,CCc1ccc(OCC(=O)Nc2ccc(F)c([N+](=O)[O-])c2)cc1 (10 µM),0
18,CN(C)c1nc2c(Br)c(Br)c(Br)c(Br)c2[nH]1 (10 µM),0
19,Nc1ncnc2c1c(-c1ccc(Oc3ccccc3)cc1)nn2C1CCN(CCOCCOCCOc2ccc3c(c2)CN(C2CCC(=O)NC2=O)C3=O)CC1 (stereo not given) (2.5 µM),0
20,Cc1cnc(NC2CCOCC2)nc1-n1cnc(C(=O)N[C@H](CN)c2cc(F)cc(Cl)c2)c1 (10 µM),0

row,SMILES,number of time points
1,FC(F)(F)c1ccc(/C=C/c2nc(COc3ccc(CCCCn4ccnn4)cc3)co2)cc1 [Mubritinib] (10 µM),0
2,Cc1cc2sc(NC(=O)Cc3ccccc3)nc2cc1Cl (10 µM),0
3,O=C(CNc1cccc(Cl)c1)NC1CCCN(c2ncnc3[nH]ccc23)C1 (stereo not given) (10 µM),0
4,Oc1ccc(/C=C/c2cc(O)cc(F)c2)cc1 [Resveratrol analog 1] (10 µM),0
5,CC/C(=N\NC(=O)c1ccnc(NCCCN2CCOCC2)c1)c1ccc(Cl)cc1O (2.5 µM),0
6,O[C@@H]1CO[C@H]2[C@@H]1OC[C@H]2Oc1nc2nc(-c3ccc(-c4ccccc4)cc3)c(Cl)cc2[nH]1 (10 µM),0
7,Nc1c(C(=O)NCc2ccc(C(=O)NCCCC3CCCCC3)cc2)cnn1-c1ccccc1 (2.5 µM),0
8,Cc1ccc(C(=O)Nc2sc(Nc3ccccc3)nc2C(N)=O)cc1 (10 µM),0
9,COc1cc(N(C)CCN(C)C)c(N)cc1Nc1nccc(-c2cn(C)c3ccccc23)n1 [Mutated EGFR-IN-1] (10 µM),0
10,CCN(CC)c1cc2oc(=O)c(-c3nc4ccccc4o3)cc2cc1C (2.5 µM),0
11,Cn1cc(-c2cnc3cnn(S(=O)(=O)c4cnc5ccc(-c6cnn(C)c6)cn45)c3c2)cn1 [Glumetinib] (10 µM),0
12,Cc1ccc(NC(=O)c2ccnc(C(F)(F)F)c2)cc1-c1cc(OCCO)nc(N2CCOCC2)c1 (10 µM),0
13,C=CC(=O)Nc1cccc(-c2cccc3cnc(Nc4ccc(N5CCN(CCO)CC5)c(F)c4F)nc23)c1 [Olafertinib] (2.5 µM),0
14,CC(C)(C[C@H](N)C(=O)O)C(F)F [NV-5138 (hydrochloride)] (10 µM),0
15,Cc1cc(C)nc(NS(=O)(=O)c2ccc(NC(=S)NC(=O)COc3ccc(Br)cc3Cl)cc2)n1 (2.5 µM),0
16,CC[C@@](C)(Nc1ccnc(-c2c[nH]c3ncccc23)n1)C(=O)NCC(F)(F)F [Decernotinib] (10 µM),0
17,COc1cc2ncnc(-n3nc(-c4ccccn4)nc3N)c2cc1OC (10 µM),0
18,O=C1/C(=C\c2ccc(Cl)cc2)C=C(c2ccccc2)N1c1ccc(O)cc1 (2.5 µM),0
19,Oc1ccc(/C=C/c2cc(O)cc(O)c2)cc1 [Resveratrol] (10 µM),0
